Reference: paper PMC4901443
These are yes or no findings as the source states them, for the method shown. For part of these data: A result given as binding can be weak or reduced; the word gives no strength. For part of these data: Tags and fused reporters may be left off the sequences shown. Values belong to the molecule of their own block, whether it stands above or below them.

The chains behind the UniProt entries cited, without tags or fusion partners. Where a name states a change or a piece, a line headed by the entry shows the natural chain unless it says otherwise.
UniProt C5J412: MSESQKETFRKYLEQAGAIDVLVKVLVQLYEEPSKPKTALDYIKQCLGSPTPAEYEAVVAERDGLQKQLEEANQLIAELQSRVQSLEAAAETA

Experiments:
[1] = target: T1, RSP3 (AKAP97), endogenous in axonemes (Chlamydomonas reinhardtii (endogenous in axonemes)) (UniProt P12759); assay: far-Western, overlay or dot blot; axonemes of WT and mutants (pf14, pf15, pf18, pf19, pf20) on SDS-PAGE, blotted on nitrocellulose, overlaid with ~20 μg/ml purified 6His-FAP174 or 6His-RIIa D/D; detected with HRP-conjugated anti-His antibody; only the binder purified
T1 sequence: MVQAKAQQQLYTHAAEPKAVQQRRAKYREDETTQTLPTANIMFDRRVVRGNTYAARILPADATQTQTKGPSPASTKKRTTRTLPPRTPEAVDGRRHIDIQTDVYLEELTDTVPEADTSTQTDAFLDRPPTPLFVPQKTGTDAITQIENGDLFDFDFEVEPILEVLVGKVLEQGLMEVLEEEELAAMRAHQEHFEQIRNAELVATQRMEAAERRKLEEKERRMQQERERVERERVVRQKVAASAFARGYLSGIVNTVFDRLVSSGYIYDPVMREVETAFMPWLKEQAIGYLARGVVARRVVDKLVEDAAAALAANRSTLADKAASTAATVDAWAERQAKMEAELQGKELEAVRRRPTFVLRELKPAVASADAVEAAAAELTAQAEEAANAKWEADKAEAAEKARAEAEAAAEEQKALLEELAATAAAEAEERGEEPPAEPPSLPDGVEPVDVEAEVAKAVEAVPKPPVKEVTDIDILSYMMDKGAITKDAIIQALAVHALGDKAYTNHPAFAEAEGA

[2] = target: 6His-FAP174 (Flagellar Associated Protein 174) (Chlamydomonas reinhardtii) (UniProt C5J412); assay: pull-down; purified 6His-tagged protein held on Ni-NTA resin (4 °C, 1 h), purified GST fusion or GST added (4 °C, 2 h); 25 mM Tris-Cl pH 7.5, 150 mM NaCl, 5 % sucrose, 0.1 % Triton-X, 50 mM imidazole; silver staining; both purified
[3] = target: 6His-tagged Arl6 (ADP ribosylation factor-like 6 protein) (Chlamydomonas reinhardtii); assay: as above

binding [1]: no binding (tested: ~20 μg/ml)
Molecule: 6His-FAP174 (Flagellar Associated Protein 174) (from UniProt C5J412)

binding [2]: binds weakly
binding [3]: no binding
B1: GST-RSP3 AH(96–180) (domain or fragment, UniProt P12759 96-180)
chain: HIDIQTDVYLEELTDTVPEADTSTQTDAFLDRPPTPLFVPQKTGTDAITQIENGDLFDFDFEVEPILEVLVGKVLEQGLMEVLEE
